The target in the assay is T1, ORRM2 (organelle RRM protein 2), mature coding sequence (Arabidopsis) (UniProt Q9FIU6).
T1 sequence: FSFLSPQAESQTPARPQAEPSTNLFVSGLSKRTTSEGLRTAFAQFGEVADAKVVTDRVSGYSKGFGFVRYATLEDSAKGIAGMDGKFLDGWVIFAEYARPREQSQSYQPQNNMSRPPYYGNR
Nature of the assay: two-hybrid; yeast strain PJ69-4 a and alpha, double transformants by mating; spotted at 1 x 10^6 and 1 x 10^5 cells/ml on media without leucine, tryptophan, adenine and histidine; empty vectors as control for auto-activation; read 2 d to 10 d after spotting.

Results are given in words; binding and its absence hold for the method and conditions named.

For one substance, binding results are on record in paper PMC4402546.

As to MEF1, the binding entry was “no binding”.
